Assay results from patent US5602277A, “Substituted benzene derivatives useful as neuraminidase inhibitors” (priority 1995, dated 1997).
At least one compound was matched to its structure with a doubt left.

System: influenza virus neuraminidase
Type: biochemical
Conditions: substrate 75 μM, pH 6.5, 5 min at 37° C.

Question: How did the IC50 turn out when `CS(=O)(=O)Nc1ccc(C(=O)O)cc1C=NO` [Example 44, 3-[(N-Hydroxyimino)methyl]-4-[(methylsulfonyl)amino]benzoic acid] was run?
Answer: 2000 µM
